# At least one structure is not confirmed: it was looked up by name or label, or the drawing left a doubt.
# Tested on: Normal human epithelial keratinocytes (NHEK)
# Test: Ca2+ imaging (fura-2) in single cultured keratinocytes
# Type: cell-based
# Conditions: 300 μM SNAP with 10 μM ODQ or 50 μM nifedipine
# Method: Normal human epithelial keratinocytes (NHEK) were purchased from Kurabo (Osaka, Japan). NHEK were cultured in serum-free keratinocyte growth medium, consisting of Humedia-KB2 (Kurabo, Osaka, Japan) supplemented with bovine pituitary extract (0.4% vol/vol), human recombinant epidermal growth (0.1 μg per mL), insulin (10 μg per mL), and hydrocortisol (0.5 μg per mL). The medium was replaced every 2-3 d. For the electrophysiological experiments, NHEK (passage 1-3 cells) were seeded onto collagen-coated glass coverslips and used within 4 d. Ca^2+ imaging in single keratinocytes
# NHEK were grown to approximately 80-100% confluency on collagen-coated cover glass chambers (Nalge Nunc, Naperville, Ill.). Changes in [Ca^2+] in single cells were measured by the fura-2 method as described by Grynkiewicz et al. (1985) with minor modifications(Koizumi et al, 1998). […] The image data, recorded by a high-sensivity CCD (charge-coupled-device) camera (ORCA-ER, Hamamatsu Photonics, Hamamatsu, Japan) were evaluated with a Ca^2+ analyzing system (AQUACOSMOS/RATIO, Hamamatsu Photonics). […] Data were represented as the ratio of fluorescence intensities at 340 and 380 nm.
smiles,measurement,value
COC(=O)C1=C(C)NC(C)=C(C(=O)OC)C1c1ccccc1[N+](=O)[O-] [nifedipine],effect on increase of intracellular calcium induced by SNAP,did not affect it

# Source: patent US20070232595A1, “Method for accelerating cutaneous barrier recovery” (Shiseido Company, Ltd., priority 2006, published 2007)
